In paper PMC4202161:
No constants are given. Whether binding was seen depends on the method and setting. Binding seen in cells or lysates may run through a third protein. Some binding calls cover weakened binding; strength is not graded here.

By UniProt entry, the sequences of proteins in these tests, tags left out. Residues count along the entry.
UniProt P35869, residues 11-848: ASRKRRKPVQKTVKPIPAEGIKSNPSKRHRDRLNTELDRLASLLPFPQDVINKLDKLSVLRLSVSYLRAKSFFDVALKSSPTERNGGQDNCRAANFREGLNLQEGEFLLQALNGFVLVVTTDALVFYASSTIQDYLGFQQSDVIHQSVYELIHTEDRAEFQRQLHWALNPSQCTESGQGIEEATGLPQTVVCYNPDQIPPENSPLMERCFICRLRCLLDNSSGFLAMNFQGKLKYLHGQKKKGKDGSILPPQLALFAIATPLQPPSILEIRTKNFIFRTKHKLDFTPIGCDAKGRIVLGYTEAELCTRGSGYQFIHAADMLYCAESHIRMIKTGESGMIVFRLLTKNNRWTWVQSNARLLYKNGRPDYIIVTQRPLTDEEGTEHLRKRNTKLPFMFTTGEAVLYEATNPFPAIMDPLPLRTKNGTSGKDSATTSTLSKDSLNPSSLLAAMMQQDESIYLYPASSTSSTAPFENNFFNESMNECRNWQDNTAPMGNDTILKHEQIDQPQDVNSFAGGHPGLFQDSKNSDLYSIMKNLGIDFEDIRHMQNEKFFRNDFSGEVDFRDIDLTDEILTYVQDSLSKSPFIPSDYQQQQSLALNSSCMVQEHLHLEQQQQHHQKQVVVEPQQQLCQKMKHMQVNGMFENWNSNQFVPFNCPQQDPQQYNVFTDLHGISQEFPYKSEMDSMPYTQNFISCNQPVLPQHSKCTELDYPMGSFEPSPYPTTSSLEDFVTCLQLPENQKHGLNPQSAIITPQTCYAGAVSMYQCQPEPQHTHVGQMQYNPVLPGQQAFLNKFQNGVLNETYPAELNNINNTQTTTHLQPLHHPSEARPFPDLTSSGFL

Biological target: T1, Calpain-10 (human (endogenous in AGS)) (UniProt Q9HC96)
T1 sequence: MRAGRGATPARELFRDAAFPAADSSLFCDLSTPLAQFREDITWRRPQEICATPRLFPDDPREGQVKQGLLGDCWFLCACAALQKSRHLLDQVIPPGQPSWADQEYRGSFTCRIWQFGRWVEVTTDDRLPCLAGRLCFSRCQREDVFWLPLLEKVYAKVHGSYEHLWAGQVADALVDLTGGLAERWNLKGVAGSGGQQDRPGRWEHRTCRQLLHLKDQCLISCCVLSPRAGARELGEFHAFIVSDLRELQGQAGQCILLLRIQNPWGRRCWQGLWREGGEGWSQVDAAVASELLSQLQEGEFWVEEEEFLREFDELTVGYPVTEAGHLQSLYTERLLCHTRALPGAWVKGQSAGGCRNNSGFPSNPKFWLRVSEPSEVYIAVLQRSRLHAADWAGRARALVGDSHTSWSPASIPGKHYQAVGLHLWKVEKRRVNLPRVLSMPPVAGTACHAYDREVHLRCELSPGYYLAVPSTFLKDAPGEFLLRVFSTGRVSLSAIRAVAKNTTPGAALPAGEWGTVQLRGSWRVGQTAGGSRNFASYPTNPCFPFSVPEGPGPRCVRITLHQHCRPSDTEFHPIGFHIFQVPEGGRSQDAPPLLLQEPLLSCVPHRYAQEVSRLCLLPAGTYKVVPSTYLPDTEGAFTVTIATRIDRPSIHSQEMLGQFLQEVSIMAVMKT
Assay: co-IP; AGS cells treated with or without Biseugenol (40 μM) for 4, 8 or 10 h; Calpain-10 immunoprecipitated by anti-Calpain-10 antibody from cell lysates; immunoblot probed for AhR and Calpain-10

binding: binds
Substance: Aryl hydrocarbon receptor (from UniProt P35869 11-848)
